# Earlier results, collected in patent publication US20070286806A1, “Methods and Compositions for Modulating a Steroid Receptor” (Mount Sinai Hospital, priority 2004, published 2007).
# The exact form of at least one protein or probe is not confirmed.
# System: PSF C-terminally truncated form (no RRMs)
# Assay: binding assay
# Settings: CITED Urban et al 2002 (ref 43); cited from earlier work
sequence,measurement,value
CTGAGTC (double strand) [PSF site in P450 side chain cleavage enzyme promoter],binding result,binds
